Taken from: PubChem BioAssay AID504808 (Drosophila RNAi Screening Center, 2011)

Purpose: 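Fly genes required to hold E2F transcription in check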 (primary screen)
Cells: Drosophila S2 cells
Reagents: long dsRNA against Drosophila genes
Measurement: 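Firefly luciferase driven by E2F sites, normalised to Renilla luciferase on the same minimal promoter, measured by plate reader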
Scale: E2F firefly: higher = more E2F reporter activity; Renilla normaliser: higher = more normaliser reporter signal
Active means: 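Called active if the normalised E2F reporter went up by over 50%; the cutoff is arbitrary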
The screen tested about 21,000 reagents; below is a random part of those that have a named target and a result. In the full data, 18 (0.084%) are marked active. 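Raw counts without plate normalisation, one of two replicates; the ratio scores behind the calls were not deposited.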 Reagents against one gene are numbered here. Not given: the amount of reagent, the time to read-out.

target gene | dsRNA no. | E2F firefly, rep 1 | Renilla normaliser, rep 1 | call
CG42254 (retired record) (GeneID 36644) | 1 | 1.07e5 | 4244 | inactive
IntS6 (GeneID 31496) | 1 | 10763 | 868 | inactive
ND-18 (GeneID 32936) | 1 | 1.34e5 | 6384 | inactive
CG7083 (GeneID 38943) | 1 | 1.04e5 | 3610 | inactive
CG2712 (GeneID 31267) | 1 | 2074 | 880 | inactive
orb (GeneID 42752) | 1 | 44815 | 3426 | inactive
CG5194 (GeneID 39037) | 1 | 74840 | 3126 | inactive
sl (GeneID 32601) | 1 | 7940 | 744 | inactive
CG4462 (GeneID 42376) | 1 | 68309 | 3609 | inactive
Lk6 (GeneID 44672) | 1 | 80770 | 2860 | inactive
Lk6 (GeneID 44672) | 2 | 65192 | 3270 | inactive
CG12009 (GeneID 38405) | 1 | 73041 | 4194 | inactive
CG3999 (GeneID 41253) | 1 | 1.47e5 | 6176 | inactive
Muc26B (GeneID 50424) | 1 | 1.37e5 | 4657 | inactive
CG31551 (GeneID 318795) | 1 | 59220 | 3488 | inactive
vtd (GeneID 3354896) | 1 | 1.44e5 | 7121 | inactive
wap (GeneID 33131) | 1 | 1.36e5 | 5254 | inactive
ssp7 (GeneID 318146) | 1 | 83386 | 2886 | inactive
Btk (GeneID 34132) | 1 | 1.47e5 | 5069 | inactive
Btk (GeneID 34132) | 2 | 91269 | 4009 | inactive
CG30287 (GeneID 246530) | 1 | 1.14e5 | 4586 | inactive
scw (GeneID 46000) | 1 | 1.36e5 | 5936 | inactive
scw (GeneID 46000) | 2 | 1.35e5 | 6607 | inactive
CG33775 (GeneID 3772054) | 1 | 1.45e5 | 5340 | inactive
CG17930 (GeneID 41979) | 1 | 68848 | 3152 | inactive
velo (GeneID 38748) | 1 | 60747 | 2749 | inactive
velo (GeneID 38748) | 2 | 62428 | 3860 | inactive
Vps2 (GeneID 43164) | 1 | 1907 | 1052 | inactive
Rbm13 (GeneID 31818) | 1 | 68563 | 4660 | inactive
dpy (GeneID 318824) | 1 | 1.38e5 | 6189 | inactive
dpy (GeneID 318824) | 2 | 1.39e5 | 5594 | inactive
dpy (GeneID 318824) | 3 | 1.51e5 | 5035 | inactive
CheA86a (GeneID 3772145) | 1 | 84022 | 2370 | inactive
Fer1 (GeneID 2768661) | 1 | 1.34e5 | 6408 | inactive
Fer1 (GeneID 2768661) | 2 | 1.19e5 | 5579 | inactive
CG18473 (GeneID 41116) | 1 | 1.29e5 | 6125 | inactive
CG34355 (GeneID 42820) | 1 | 81176 | 2610 | inactive
CG34355 (GeneID 42820) | 2 | 1.14e5 | 5502 | inactive
CG34355 (GeneID 42820) | 3 | 1.11e5 | 6272 | inactive
CG2975 (GeneID 33481) | 1 | 1.68e5 | 5494 | inactive
CG11927 (GeneID 33687) | 1 | 92155 | 3595 | inactive

In a second layout: 11 of the entries above
{"target gene":"Muc26B (GeneID 50424)","dsRNA no.":1,"E2F firefly, rep 1":1.37e5,"Renilla normaliser, rep 1":4657,"call":"inactive"}
{"target gene":"CG31551 (GeneID 318795)","dsRNA no.":1,"E2F firefly, rep 1":59220,"Renilla normaliser, rep 1":3488,"call":"inactive"}
{"target gene":"vtd (GeneID 3354896)","dsRNA no.":1,"E2F firefly, rep 1":1.44e5,"Renilla normaliser, rep 1":7121,"call":"inactive"}
{"target gene":"wap (GeneID 33131)","dsRNA no.":1,"E2F firefly, rep 1":1.36e5,"Renilla normaliser, rep 1":5254,"call":"inactive"}
{"target gene":"ssp7 (GeneID 318146)","dsRNA no.":1,"E2F firefly, rep 1":83386,"Renilla normaliser, rep 1":2886,"call":"inactive"}
{"target gene":"Btk (GeneID 34132)","dsRNA no.":1,"E2F firefly, rep 1":1.47e5,"Renilla normaliser, rep 1":5069,"call":"inactive"}
{"target gene":"Btk (GeneID 34132)","dsRNA no.":2,"E2F firefly, rep 1":91269,"Renilla normaliser, rep 1":4009,"call":"inactive"}
{"target gene":"CG30287 (GeneID 246530)","dsRNA no.":1,"E2F firefly, rep 1":1.14e5,"Renilla normaliser, rep 1":4586,"call":"inactive"}
{"target gene":"scw (GeneID 46000)","dsRNA no.":1,"E2F firefly, rep 1":1.36e5,"Renilla normaliser, rep 1":5936,"call":"inactive"}
{"target gene":"scw (GeneID 46000)","dsRNA no.":2,"E2F firefly, rep 1":1.35e5,"Renilla normaliser, rep 1":6607,"call":"inactive"}
{"target gene":"CG33775 (GeneID 3772054)","dsRNA no.":1,"E2F firefly, rep 1":1.45e5,"Renilla normaliser, rep 1":5340,"call":"inactive"}

The results go on:
target gene | dsRNA no. | E2F firefly, rep 1 | Renilla normaliser, rep 1 | call
f (GeneID 32718) | 1 | 55536 | 3591 | inactive
f (GeneID 32718) | 2 | 1.48e5 | 5741 | inactive
f (GeneID 32718) | 3 | 1.34e5 | 5803 | inactive
CG9205 (GeneID 38113) | 1 | 67289 | 3904 | inactive
TfAP-2 (GeneID 40398) | 1 | 1.18e5 | 5753 | inactive
Or85d (GeneID 41011) | 1 | 1.43e5 | 6908 | inactive
CG4712 (GeneID 36469) | 1 | 89836 | 4398 | inactive
CG1394 (GeneID 32059) | 1 | 1.10e5 | 5061 | inactive
Bili (GeneID 43019) | 1 | 65461 | 3502 | inactive
CG1806 (GeneID 32163) | 1 | 7746 | 812 | inactive
CG9757 (GeneID 41662) | 1 | 1.19e5 | 6225 | inactive
CG6287 (GeneID 34554) | 1 | 84717 | 3823 | inactive
CG11837 (GeneID 43429) | 1 | 1694 | 1028 | inactive
ergic53 (GeneID 44679) | 1 | 96019 | 3951 | inactive
alph (GeneID 43481) | 1 | 1326 | 920 | inactive
CG33299 (GeneID 2768912) | 1 | 1.33e5 | 6182 | inactive
snRNP-U1-70K (GeneID 33982) | 1 | 1.46e5 | 5374 | inactive
sals (GeneID 41377) | 1 | 73908 | 3732 | inactive
sals (GeneID 41377) | 2 | 1.41e5 | 6846 | inactive
Gclc (GeneID 53581) | 1 | 1.12e5 | 5041 | inactive
Rbp9 (GeneID 33498) | 1 | 1.39e5 | 4581 | inactive
Rbp9 (GeneID 33498) | 2 | 95606 | 3404 | inactive
morgue (GeneID 33648) | 1 | 98203 | 3671 | inactive
CRAT (GeneID 40787) | 1 | 1.45e5 | 6186 | inactive
CG15258 (GeneID 34904) | 1 | 1.15e5 | 4019 | inactive
CG16719 (GeneID 39131) | 1 | 67974 | 3353 | inactive
CG18233 (GeneID 40025) | 1 | 1.58e5 | 7858 | inactive
Mettl3 (GeneID 42844) | 1 | 1.14e5 | 5596 | inactive
igl (GeneID 36681) | 1 | 72644 | 3501 | inactive
CG10962 (GeneID 31824) | 1 | 9063 | 772 | inactive
HDAC6 (GeneID 32461) | 1 | 7909 | 696 | inactive
LeuRS-m (GeneID 38581) | 1 | 74130 | 3612 | inactive
chm (GeneID 43928) | 1 | 94416 | 4764 | inactive
CG8578 (GeneID 32540) | 1 | 7516 | 748 | inactive
Osi24 (GeneID 40755) | 1 | 1.33e5 | 6275 | inactive
CG9265 (GeneID 35369) | 1 | 1.05e5 | 4685 | inactive
CG9265 (GeneID 35369) | 2 | 95403 | 3893 | inactive
CG7295 (GeneID 33365) | 1 | 1.81e5 | 7600 | inactive
levy (GeneID 37728) | 1 | 1.14e5 | 4230 | inactive
if (GeneID 32661) | 1 | 2.26e5 | 10743 | inactive
Ppi1 (GeneID 43581) | 1 | 1807 | 916 | inactive
Or63a (GeneID 38354) | 1 | 1.06e5 | 4102 | inactive
ine (GeneID 33659) | 1 | 90109 | 3475 | inactive
